These are yes or no findings as the source states them, for the method shown. Some entries that bind do so weakly or less than the wild type. Where a sequence is shown, tags or fusion partners need not be part of it.
Biological target: T1, soluble human MerTK with TwinStrepII-Tag (hMerTK-TS) (human) (UniProt Q12866)
T1 sequence: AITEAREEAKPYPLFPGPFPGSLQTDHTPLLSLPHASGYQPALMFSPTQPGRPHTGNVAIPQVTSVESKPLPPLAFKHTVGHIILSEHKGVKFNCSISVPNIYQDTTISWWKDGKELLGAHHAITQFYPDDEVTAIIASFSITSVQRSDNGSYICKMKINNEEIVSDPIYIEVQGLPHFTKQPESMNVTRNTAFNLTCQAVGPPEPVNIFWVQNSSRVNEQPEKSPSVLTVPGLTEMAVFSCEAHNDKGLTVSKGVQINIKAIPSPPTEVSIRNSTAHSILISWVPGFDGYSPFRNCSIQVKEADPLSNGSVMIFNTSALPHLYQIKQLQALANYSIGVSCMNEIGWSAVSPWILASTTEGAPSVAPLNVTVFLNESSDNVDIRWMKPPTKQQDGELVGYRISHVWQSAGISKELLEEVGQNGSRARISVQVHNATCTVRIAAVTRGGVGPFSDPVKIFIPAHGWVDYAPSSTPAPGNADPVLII
Experiment: BLI; Pros1 competition: MerK28 loaded onto AHC biosensors, associated to 500 nM hMerTK-TS alone or pre-incubated with an equimolar amount of Pros1; both purified

B1: Pros1 (anticoagulation factor protein S) (ligand, UniProt P07225 42-676)
chain: ANSLLEETKQGNLERECIEELCNKEEAREVFENDPETDYFYPKYLVCLRSFQTGLFTAARQSTNAYPDLRSCVNAIPDQCSPLPCNEDGYMSCKDGKASFTCTCKPGWQGEKCEFDINECKDPSNINGGCSQICDNTPGSYHCSCKNGFVMLSNKKDCKDVDECSLKPSICGTAVCKNIPGDFECECPEGYRYNLKSKSCEDIDECSENMCAQLCVNYPGGYTCYCDGKKGFKLAQDQKSCEVVSVCLPLNLDTKYELLYLAEQFAGVVLYLKFRLPEISRFSAEFDFRTYDSEGVILYAESIDHSAWLLIALRGGKIEVQLKNEHTSKITTGGDVINNGLWNMVSVEELEHSISIKIAKEAVMDINKPGPLFKPENGLLETKVYFAGFPRKVESELIKPINPRLDGCIRSWNLMKQGASGIKEIIQEKQNKHCLVTVEKGSYYPGSGIAQFHIDYNNVSSAEGWHVNVTLNIRPSTGTGVMLALVSGNNTVPFAVSLVDSTSEKSQDILLSVENTVIYRIQALSLCSDQQSHLEFRVNRNNLELSTPLKIETISHEDLQRQLAVLDKAMKAKVATYLGGLPDVPFSATPVNAFYNGCMEVNINGVQLDLDEAISKHNDIRAHSCPSVWKKTKNS
  binding: binds

— publication PMC9779728
